From the supplement of paper PMC10849652
This is one part of the list.

Amino acid sequences for entries named in this document (tags omitted). A change or cut given only in a name is not applied to a line headed by its entry.
UniProt Q9Y6I3: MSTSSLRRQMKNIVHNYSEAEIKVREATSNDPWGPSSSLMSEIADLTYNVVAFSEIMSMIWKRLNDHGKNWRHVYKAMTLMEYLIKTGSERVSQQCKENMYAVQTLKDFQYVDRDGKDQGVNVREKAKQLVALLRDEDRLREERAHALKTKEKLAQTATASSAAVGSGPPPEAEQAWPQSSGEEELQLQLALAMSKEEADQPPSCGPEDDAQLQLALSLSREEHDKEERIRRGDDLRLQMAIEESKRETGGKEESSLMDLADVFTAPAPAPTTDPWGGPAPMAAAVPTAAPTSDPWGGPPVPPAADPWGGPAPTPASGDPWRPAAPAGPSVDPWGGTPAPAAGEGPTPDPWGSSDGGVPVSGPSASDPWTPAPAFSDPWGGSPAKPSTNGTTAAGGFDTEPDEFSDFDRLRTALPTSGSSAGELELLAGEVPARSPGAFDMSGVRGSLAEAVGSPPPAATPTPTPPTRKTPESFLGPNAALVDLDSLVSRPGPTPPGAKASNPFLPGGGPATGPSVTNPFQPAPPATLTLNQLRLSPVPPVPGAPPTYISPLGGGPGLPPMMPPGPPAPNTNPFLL
UniProt Q8IV48: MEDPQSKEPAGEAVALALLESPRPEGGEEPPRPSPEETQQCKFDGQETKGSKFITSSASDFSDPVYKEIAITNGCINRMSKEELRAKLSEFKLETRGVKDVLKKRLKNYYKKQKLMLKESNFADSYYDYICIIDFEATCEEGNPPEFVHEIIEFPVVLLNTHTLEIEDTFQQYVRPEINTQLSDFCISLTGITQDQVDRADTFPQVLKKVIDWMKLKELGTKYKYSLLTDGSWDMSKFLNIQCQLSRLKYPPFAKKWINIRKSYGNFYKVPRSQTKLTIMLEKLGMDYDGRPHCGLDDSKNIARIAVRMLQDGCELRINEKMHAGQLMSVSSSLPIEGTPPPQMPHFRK
UniProt Q86YB8: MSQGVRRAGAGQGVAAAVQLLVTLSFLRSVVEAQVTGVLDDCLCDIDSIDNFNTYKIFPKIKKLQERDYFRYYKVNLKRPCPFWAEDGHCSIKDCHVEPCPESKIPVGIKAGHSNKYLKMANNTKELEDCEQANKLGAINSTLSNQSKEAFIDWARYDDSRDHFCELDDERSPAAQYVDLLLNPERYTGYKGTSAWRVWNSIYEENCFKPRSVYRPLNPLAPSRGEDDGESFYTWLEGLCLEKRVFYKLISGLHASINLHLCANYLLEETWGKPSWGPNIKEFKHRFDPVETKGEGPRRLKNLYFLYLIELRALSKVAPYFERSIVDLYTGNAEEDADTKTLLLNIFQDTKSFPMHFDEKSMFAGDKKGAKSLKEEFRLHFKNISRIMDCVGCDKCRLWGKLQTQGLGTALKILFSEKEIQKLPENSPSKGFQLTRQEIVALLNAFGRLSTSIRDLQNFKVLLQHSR
UniProt Q9Y2C4: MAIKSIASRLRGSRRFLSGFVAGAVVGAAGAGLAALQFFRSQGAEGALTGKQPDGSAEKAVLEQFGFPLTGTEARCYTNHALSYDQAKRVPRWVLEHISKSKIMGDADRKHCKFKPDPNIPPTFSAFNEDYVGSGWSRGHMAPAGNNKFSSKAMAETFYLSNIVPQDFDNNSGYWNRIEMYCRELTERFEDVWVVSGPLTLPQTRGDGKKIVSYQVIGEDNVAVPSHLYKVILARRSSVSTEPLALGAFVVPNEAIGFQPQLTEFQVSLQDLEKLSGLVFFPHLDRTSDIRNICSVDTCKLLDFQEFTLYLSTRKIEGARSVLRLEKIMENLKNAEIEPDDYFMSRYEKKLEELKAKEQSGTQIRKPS
UniProt Q8TE68: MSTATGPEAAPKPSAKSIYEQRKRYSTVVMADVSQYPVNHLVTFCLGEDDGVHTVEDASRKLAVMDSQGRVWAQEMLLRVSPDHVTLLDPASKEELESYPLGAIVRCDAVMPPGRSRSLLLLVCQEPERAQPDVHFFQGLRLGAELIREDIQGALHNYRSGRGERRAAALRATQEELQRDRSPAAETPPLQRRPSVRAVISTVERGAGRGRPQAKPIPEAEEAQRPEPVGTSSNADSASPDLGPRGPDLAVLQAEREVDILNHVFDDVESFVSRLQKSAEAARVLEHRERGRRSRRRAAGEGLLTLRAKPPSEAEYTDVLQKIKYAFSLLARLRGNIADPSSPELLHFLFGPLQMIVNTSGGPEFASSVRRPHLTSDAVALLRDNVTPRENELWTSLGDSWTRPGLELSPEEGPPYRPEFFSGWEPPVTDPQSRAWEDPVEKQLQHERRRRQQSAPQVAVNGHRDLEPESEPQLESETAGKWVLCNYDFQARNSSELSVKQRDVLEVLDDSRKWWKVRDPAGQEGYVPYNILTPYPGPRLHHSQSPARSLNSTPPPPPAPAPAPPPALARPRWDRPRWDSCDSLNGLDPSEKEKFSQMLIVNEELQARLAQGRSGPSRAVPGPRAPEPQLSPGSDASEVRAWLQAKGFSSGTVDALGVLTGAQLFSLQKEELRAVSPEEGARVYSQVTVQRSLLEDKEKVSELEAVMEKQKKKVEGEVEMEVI
UniProt O75460: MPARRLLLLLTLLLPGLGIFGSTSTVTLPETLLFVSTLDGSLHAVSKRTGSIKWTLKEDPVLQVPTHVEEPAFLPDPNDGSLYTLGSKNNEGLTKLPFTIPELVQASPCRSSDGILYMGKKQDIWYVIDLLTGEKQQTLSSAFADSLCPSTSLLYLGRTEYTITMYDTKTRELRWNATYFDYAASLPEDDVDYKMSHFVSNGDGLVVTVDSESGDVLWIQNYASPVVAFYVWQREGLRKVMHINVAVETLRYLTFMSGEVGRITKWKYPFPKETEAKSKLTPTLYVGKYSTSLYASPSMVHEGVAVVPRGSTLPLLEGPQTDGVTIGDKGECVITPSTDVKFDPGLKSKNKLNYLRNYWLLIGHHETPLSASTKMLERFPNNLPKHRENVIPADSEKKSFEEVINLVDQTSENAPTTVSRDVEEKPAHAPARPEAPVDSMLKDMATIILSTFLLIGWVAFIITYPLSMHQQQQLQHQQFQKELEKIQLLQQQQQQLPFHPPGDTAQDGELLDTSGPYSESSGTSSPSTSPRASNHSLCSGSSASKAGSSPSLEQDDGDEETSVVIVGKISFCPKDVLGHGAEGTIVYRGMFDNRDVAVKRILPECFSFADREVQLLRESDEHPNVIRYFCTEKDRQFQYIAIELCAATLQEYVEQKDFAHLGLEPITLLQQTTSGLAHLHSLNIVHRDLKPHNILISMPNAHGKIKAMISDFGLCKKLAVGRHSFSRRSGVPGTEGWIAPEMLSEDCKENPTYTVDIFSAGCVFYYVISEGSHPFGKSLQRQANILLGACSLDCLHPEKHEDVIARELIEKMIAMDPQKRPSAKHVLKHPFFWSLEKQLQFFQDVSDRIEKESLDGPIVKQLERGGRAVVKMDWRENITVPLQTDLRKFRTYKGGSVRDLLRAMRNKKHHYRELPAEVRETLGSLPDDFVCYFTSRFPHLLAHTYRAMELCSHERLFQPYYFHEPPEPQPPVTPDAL
UniProt Q8IWE2: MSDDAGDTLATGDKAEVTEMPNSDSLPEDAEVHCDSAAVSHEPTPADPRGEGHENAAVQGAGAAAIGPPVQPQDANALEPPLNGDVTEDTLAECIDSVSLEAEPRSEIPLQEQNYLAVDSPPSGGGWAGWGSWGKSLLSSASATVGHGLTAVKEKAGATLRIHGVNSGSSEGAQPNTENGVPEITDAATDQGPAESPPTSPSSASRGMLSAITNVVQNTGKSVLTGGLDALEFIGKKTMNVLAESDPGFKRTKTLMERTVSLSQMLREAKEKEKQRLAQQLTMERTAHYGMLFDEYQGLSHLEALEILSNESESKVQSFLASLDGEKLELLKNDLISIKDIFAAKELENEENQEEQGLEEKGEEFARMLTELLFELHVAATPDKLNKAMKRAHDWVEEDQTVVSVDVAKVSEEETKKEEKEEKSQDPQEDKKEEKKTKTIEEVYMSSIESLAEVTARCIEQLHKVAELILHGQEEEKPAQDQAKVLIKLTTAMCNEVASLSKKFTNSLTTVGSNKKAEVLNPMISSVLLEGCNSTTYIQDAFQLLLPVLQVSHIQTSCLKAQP
UniProt Q96PV7: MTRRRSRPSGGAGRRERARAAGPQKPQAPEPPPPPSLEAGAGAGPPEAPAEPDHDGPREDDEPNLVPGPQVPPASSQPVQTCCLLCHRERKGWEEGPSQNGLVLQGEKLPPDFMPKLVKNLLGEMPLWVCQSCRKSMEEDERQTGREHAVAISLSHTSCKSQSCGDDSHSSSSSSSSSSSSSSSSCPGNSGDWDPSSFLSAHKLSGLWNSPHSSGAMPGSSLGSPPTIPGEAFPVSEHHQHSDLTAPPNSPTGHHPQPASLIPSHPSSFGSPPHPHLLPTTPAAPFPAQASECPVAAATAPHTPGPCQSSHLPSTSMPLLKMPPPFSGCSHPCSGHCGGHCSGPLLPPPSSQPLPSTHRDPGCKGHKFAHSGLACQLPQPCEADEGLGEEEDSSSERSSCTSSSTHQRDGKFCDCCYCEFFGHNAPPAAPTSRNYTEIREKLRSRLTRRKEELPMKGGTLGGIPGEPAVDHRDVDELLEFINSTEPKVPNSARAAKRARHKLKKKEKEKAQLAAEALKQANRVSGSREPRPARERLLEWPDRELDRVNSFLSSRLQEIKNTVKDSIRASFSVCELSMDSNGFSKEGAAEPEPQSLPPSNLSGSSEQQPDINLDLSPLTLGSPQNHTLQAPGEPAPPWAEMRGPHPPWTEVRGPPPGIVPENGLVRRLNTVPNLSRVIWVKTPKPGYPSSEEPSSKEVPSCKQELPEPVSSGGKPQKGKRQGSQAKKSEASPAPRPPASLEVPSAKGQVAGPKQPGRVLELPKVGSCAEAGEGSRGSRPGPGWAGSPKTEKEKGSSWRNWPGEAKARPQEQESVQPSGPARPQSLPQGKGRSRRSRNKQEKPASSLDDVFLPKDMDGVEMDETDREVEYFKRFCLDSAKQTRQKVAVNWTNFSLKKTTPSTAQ
UniProt Q9UF33: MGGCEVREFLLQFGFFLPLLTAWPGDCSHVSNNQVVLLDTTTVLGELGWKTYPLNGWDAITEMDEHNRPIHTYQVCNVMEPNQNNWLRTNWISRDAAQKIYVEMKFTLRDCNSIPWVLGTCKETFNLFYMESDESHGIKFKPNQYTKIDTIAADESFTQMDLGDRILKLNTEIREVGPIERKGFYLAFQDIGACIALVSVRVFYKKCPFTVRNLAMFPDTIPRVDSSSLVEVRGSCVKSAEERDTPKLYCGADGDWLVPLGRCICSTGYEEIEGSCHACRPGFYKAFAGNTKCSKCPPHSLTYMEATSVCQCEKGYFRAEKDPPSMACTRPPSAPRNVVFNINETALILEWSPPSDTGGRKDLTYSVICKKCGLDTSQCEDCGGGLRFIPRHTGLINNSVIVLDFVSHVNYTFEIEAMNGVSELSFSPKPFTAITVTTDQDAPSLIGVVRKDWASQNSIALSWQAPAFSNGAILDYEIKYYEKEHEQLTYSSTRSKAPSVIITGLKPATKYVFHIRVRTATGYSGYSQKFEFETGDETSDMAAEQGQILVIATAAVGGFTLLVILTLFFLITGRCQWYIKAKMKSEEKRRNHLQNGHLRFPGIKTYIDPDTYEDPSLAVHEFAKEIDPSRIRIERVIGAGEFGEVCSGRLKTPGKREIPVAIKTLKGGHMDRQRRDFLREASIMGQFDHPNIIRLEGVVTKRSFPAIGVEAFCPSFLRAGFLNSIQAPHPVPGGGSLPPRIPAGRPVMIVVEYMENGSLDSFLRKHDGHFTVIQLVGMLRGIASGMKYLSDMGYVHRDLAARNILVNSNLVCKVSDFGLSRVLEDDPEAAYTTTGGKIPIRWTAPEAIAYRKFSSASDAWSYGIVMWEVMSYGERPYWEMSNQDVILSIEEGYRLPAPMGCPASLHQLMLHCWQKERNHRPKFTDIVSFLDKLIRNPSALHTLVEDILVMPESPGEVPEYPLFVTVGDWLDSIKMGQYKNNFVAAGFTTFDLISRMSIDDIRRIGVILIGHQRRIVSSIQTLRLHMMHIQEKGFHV
UniProt P00740, whole entry, looked up: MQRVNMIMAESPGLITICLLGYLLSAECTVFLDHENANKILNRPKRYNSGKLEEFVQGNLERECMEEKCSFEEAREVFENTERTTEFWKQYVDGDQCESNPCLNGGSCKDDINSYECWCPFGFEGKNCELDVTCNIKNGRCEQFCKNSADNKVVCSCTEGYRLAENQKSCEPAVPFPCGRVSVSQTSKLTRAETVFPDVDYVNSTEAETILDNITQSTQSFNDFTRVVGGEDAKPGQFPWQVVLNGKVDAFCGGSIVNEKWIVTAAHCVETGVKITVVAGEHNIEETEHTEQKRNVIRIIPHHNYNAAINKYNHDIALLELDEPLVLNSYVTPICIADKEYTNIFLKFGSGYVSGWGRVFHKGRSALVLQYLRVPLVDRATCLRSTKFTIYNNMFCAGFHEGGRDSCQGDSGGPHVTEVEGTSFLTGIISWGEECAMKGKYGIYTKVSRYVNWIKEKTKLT

Columns and labels:
Assay in all cases: log2 fold change, soluble protein after heating vs DMSO (PISA); higher = thermal stabilisation; K562 cells, 10 uM, 30 min; active = over 0.2 and 3.5 SD of the protein, either way, in both replicates (recomputed)
bafetinib = compound: Cc1ccc(NC(=O)c2ccc(CN3CC[C@H](N(C)C)C3)c(C(F)(F)F)c2)cc1Nc1nccc(-c2cncnc2)n1 [bafetinib]
Procedure, shortened: (§1)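 K562 cells at 2×10^6 cells/mL were treated with 10 μM compound for 30 min. Aliquots were heated for 3 min across 48°C-58°C, pooled, and extracted in PBS with 0.5% NP-40 at 4°C; soluble protein was the supernatant after 21,000xg for 90 min. Soluble protein was quantified by TMTpro 16plex LC-MS/MS with channel sums equalised, and reported as log2 fold change in thermal stability against DMSO controls, with values from duplicates.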

dasatinib = compound: Cc1nc(Nc2ncc(C(=O)Nc3c(C)cccc3Cl)s2)cc(N2CCN(CCO)CC2)n1 [dasatinib]
Procedure, shortened: as §1

[1] = compound: Cc1cccc(CC(=O)N2CCc3c2ccc(-c2cn(C)c4ncnc(N)c24)c3F)n1
Procedure, shortened: as §1

[2] = compound: Cn1cc(-c2ccc3c(c2)CCN3C(=O)Cc2cccc(C(F)(F)F)c2)c2c(N)ncnc21
Procedure, shortened: as §1

[3] = compound: Cn1cc(-c2ccc3nnc(C(F)(F)c4ccc5ncccc5c4)n3n2)cn1
Procedure, shortened: as §1

mubritinib = compound: FC(F)(F)c1ccc(/C=C/c2nc(COc3ccc(CCCCn4ccnn4)cc3)co2)cc1 [mubritinib]
Procedure, shortened: as §1

[4] = compound: NC1(c2ccc(-c3nc4ccn5c(=O)[nH]nc5c4cc3-c3ccccc3)cc2)CCC1
Procedure, shortened: as §1

[5] = compound: NCC(=O)Nc1ccc(-n2nc(C(F)(F)F)cc2-c2ccc3c(ccc4ccccc43)c2)cc1
Procedure, shortened: as §1

vorinostat = compound: O=C(CCCCCCC(=O)Nc1ccccc1)NO [vorinostat]
Procedure, shortened: as §1

silmitasertib = compound: O=C(O)c1ccc2c(c1)nc(Nc1cccc(Cl)c1)c1ccncc12 [silmitasertib]
Procedure, shortened: as §1

[6] = compound: O=C1NC(=O)C(c2cnc3ccccn23)=C1c1cn2c3c(cc(F)cc13)CN(C(=O)N1CCCCC1)CC2
Procedure, shortened: as §1

nilotinib = compound: Cc1cn(-c2cc(NC(=O)c3ccc(C)c(Nc4nccc(-c5cccnc5)n4)c3)cc(C(F)(F)F)c2)cn1 [nilotinib]
Procedure, shortened: as §1

[7] = compound: Cc1nc(Nc2n[nH]c3c2CN(C(=O)N[C@H](CN(C)C)c2ccccc2)C3(C)C)c2sccc2n1
Procedure, shortened: as §1

[8] = compound: Cc1ncc(-c2ccnc(Nc3ccc(S(C)(=O)=O)cc3)n2)n1C(C)C
Procedure, shortened: as §1

tipifarnib = compound: Cn1cncc1[C@@](N)(c1ccc(Cl)cc1)c1ccc2c(c1)c(-c1cccc(Cl)c1)cc(=O)n2C [tipifarnib]
Procedure, shortened: as §1

[9] = compound: NC(=O)Nc1cc(-c2cccc(F)c2)sc1C(=O)N[C@H]1CCCNC1
Procedure, shortened: as §1

[10] = compound: NC(=O)c1cnc(N[C@@H]2CCCC[C@@H]2N)nc1Nc1cccc(-n2nccn2)c1
Procedure, shortened: as §1

entinostat = compound: Nc1ccccc1NC(=O)c1ccc(CNC(=O)OCc2cccnc2)cc1 [entinostat]
Procedure, shortened: as §1

citarinostat = compound: O=C(CCCCCCNC(=O)c1cnc(N(c2ccccc2)c2ccccc2Cl)nc1)NO [citarinostat]
Procedure, shortened: as §1

[11] = compound: c1cc(OCCN2CCCCC2)cc(-c2n[nH]c3ccc(-c4nnc[nH]4)cc23)c1
Procedure, shortened: as §1

Measured: log2 fold change

EPN1 isoform 3 (UniProt Q9Y6I3)
inactive: bafetinib 0.025 | dasatinib 0.148

ERI1 (UniProt Q8IV48)
inactive: [1] -0.049 | dasatinib 0.038 | [2] -0.333 | [3] -0.089 | mubritinib 0.197 | [4] 0.184 | [5] 0.095 | vorinostat 0.067 | silmitasertib 0.084 | [6] 0.276

ERO1B (UniProt Q86YB8)
inactive: bafetinib -0.009 | nilotinib -0.099 | [7] -0.061 | dasatinib 0.196 | [8] -0.027 | [2] 0.009 | tipifarnib 0.012 | mubritinib 0.079 | [9] 0 | [10] -0.095 | [4] -0.138 | [5] -0.072 | entinostat 0.029 | citarinostat 0.071 | silmitasertib -0.002 | [6] 0.016 | [11] 0.057

Reprinted at random: 2 entries already listed
ERO1B (UniProt Q86YB8)
inactive: bafetinib -0.009 | nilotinib -0.099 | [7] -0.061 | dasatinib 0.196 | [8] -0.027 | [2] 0.009 | tipifarnib 0.012 | mubritinib 0.079 | [9] 0 | [10] -0.095 | [4] -0.138 | [5] -0.072 | entinostat 0.029 | citarinostat 0.071 | silmitasertib -0.002 | [6] 0.016 | [11] 0.057

ERI1 (UniProt Q8IV48)
inactive: [1] -0.049 | dasatinib 0.038 | [2] -0.333 | [3] -0.089 | mubritinib 0.197 | [4] 0.184 | [5] 0.095 | vorinostat 0.067 | silmitasertib 0.084 | [6] 0.276

The list continues:

EXOG (UniProt Q9Y2C4)
inactive: [1] -0.051 | dasatinib -0.11 | [2] -0.032 | [3] 0.123 | tipifarnib 0.091 | mubritinib 0.025 | [10] 0.04 | [4] 0.007 | [5] -0.001 | vorinostat -0.033 | citarinostat -0.048 | silmitasertib -0.036 | [11] 0.004

EPS8L1 (UniProt Q8TE68)
inactive: bafetinib -0.437 | dasatinib -0.029 | [2] 0.005 | [6] 0.093

ERN1 (UniProt O75460)
inactive: [1] 0.133 | nilotinib 0.053 | [7] 0.045 | dasatinib -0.057 | [8] 0.253 | [3] 0.01 | tipifarnib 0.012 | mubritinib -0.147 | [9] -0.04 | [4] 0.02 | entinostat -0.107 | vorinostat 0.087 | silmitasertib 0.009 | [6] -0.17

FAM114A1 (UniProt Q8IWE2)
inactive: [1] 0.308 | dasatinib -0.06 | [3] -0.368 | mubritinib -0.133 | [4] -0.172 | vorinostat 0.027 | silmitasertib -0.097 | [6] 0.233

FAM193B (UniProt Q96PV7)
inactive: bafetinib 0.19 | dasatinib -0.01 | [2] 0.171 | tipifarnib -0.027 | [9] 0.22 | [10] -0.053 | [5] -0.014 | entinostat 0.25 | citarinostat 0.032 | [6] 0.149 | [11] -0.205

EPHA6 (UniProt Q9UF33)
inactive: bafetinib -0.379 | nilotinib -0.039 | [7] 0.122 | dasatinib 0.059 | [8] 0.232 | [2] -0.022 | [3] -0.064 | tipifarnib 0.363 | mubritinib -0.055 | [9] -0.523 | [10] -0.368 | [4] -0.085 | [5] -0.504 | entinostat -0.346 | citarinostat -0.354 | silmitasertib 0.272 | [6] -0.173 | [11] 0.401

EPHX2 (UniProt E5RI53)
inactive: bafetinib -0.17 | [6] -0.058

EWSR1 (UniProt H7BY36)
inactive: bafetinib -0.037 | nilotinib 0.068 | [7] 0.291 | [8] 0 | [2] 0.09 | tipifarnib 0.063 | mubritinib 0.093 | [10] 0.081 | [4] 0.003 | [5] -0.005 | citarinostat -0.016 | silmitasertib 0.124 | [6] -0.154 | [11] -0.022

F9 (UniProt P00740)
inactive: bafetinib -0.081 | nilotinib -0.119 | [7] -0.16 | dasatinib -0.184 | [8] 0.31 | [2] 0.045 | tipifarnib -0.139 | [10] 0.09 | [5] 0
